Assay results taken from article PMC5666514 (Chemical Science, 2015).
Some peptides are written in HELM: one residue between dots, names in brackets for other building blocks, links after the first $.

Assay: general procedure: peptide synthesis; 2-chlorotrityl chloride resin loaded with Fmoc-1,2-ethylenediamine·HCl (0.7 mmol/g); COMU/OxymaPure/DIEA; PyBOP/HOAt/DIEA for 2-quinoxalinecarboxylic acid in solutio
Conditions: whole synthesis; for isolated yield: overall

| Substance | isolated yield [%] | also measured |
| --- | --- | --- |
| PEPTIDE1{[Qxn].S.[Abu].V.I.[dP].G.I.V.[Abu].[EDA-Qxn]}$$$$V2.0 | 7 |  |
| PEPTIDE1{[Qxn].S.[Abu].V.T.[dP].G.T.V.[Abu].[EDA-Qxn]}$$$$V2.0 | 0.2 |  |
| PEPTIDE1{[Qxn].S.[Abu].V.V.[dP].G.V.V.[Abu].[EDA-Qxn]}$$$$V2.0 | 12.1 |  |
| PEPTIDE1{[Qxn].S.[NMeAbu].[NMeVal].V.[dP].G.V.[NMeVal].[NMeAbu].[EDA-Qxn]}$$$$V2.0 |  | crude yield: 99.5% yield; crude HPLC purity (analytical HPLC): 72% purity; isolated yield (scale 0.1 mmol): 15% overall yield; isolated mass (scale 0.1 mmol): 19.6 mg |
| PEPTIDE1{[Qxn].[Dap(CF)].[Abu].V.V.[dP].G.V.V.[Abu].[EDA-Qxn]}$$$$V2.0 | 5.3 |  |
| PEPTIDE1{[Qxn].[dS].[Abu].V.V.[dP].G.V.V.[Abu].[EDA-Qxn]}$$$$V2.0 | 1.5 |  |
| PEPTIDE1{[Qxn].[dS].[NMeAbu].[NMeVal].V.[dP].G.V.[NMeVal].[NMeAbu].[EDA-Qxn]}$$$$V2.0 | 0.5 |  |
